The target in assay [1] is Pfs230D1 (Plasmodium falciparum 3D7) (UniProt P68874). The experiment in a line: SEC; Superdex 75 Increase 10/300 GL column, PBS; both purified.
Assay [2] has the same target. The experiment in a line: SEC-SAXS; SIBYLS beamline 12.3.1; Shodex KW-804 column for Pfs230D1-ferritin, Shodex KW-802.5 column for Pfs230D1; molecular weight from SAXS (ATSAS); both purified. Background: SEC sorts molecules by how far they enter the pores of the column.

The chains behind the UniProt entries cited, without tags or fusion partners. Residues count along the entry.
UniProt P68874, residues 542-736: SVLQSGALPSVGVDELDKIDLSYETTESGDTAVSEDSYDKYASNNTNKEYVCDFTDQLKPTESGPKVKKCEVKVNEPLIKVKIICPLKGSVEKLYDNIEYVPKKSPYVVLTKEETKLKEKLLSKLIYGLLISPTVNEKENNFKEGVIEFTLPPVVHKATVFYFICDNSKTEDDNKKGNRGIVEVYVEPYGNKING

Results are given in words; binding and its absence hold for the method and conditions named.

Consider “Pfs230D1 (from UniProt P68874 542-736) (domain or fragment)”, for which the binding result in assay [1] and in assay [2] was “no binding” throughout.

Values taken from publication PMC11125772, “A Self-Assembling Pfs230D1-Ferritin Nanoparticle Vaccine Has Potent and Durable Malaria Transmission-Reducing Activity” (Vaccines, 2024).
